In PMC12339988:
No constants are given. Whether binding was seen depends on the method and setting. Binding seen in cells or lysates may run through a third protein. A yes stands for co-enrichment or nearness to the bait. Other partners may have been found.

By UniProt entry, the sequences of proteins in these tests, tags left out.
UniProt P33993: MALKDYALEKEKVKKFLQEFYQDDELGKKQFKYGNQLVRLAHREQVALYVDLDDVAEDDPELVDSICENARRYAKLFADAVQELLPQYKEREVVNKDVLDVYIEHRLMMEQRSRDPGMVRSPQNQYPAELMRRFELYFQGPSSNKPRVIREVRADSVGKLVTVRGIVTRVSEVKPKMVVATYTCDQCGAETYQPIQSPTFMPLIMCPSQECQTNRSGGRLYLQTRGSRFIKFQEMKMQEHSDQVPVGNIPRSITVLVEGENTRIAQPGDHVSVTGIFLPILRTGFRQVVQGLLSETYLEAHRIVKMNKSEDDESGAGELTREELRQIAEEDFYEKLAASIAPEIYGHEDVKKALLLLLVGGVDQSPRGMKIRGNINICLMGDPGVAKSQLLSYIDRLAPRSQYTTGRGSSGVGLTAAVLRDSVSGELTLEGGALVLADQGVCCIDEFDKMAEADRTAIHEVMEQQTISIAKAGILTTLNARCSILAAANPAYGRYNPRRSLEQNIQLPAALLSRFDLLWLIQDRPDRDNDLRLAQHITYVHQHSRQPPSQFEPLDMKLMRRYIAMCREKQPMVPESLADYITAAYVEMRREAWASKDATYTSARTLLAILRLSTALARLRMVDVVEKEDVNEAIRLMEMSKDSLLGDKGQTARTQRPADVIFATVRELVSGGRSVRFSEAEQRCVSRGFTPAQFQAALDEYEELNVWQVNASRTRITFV

T1: SHCBP1, endogenous (human (endogenous in HepG2 and HL7702)) (UniProt Q8NEM2)
T1 sequence: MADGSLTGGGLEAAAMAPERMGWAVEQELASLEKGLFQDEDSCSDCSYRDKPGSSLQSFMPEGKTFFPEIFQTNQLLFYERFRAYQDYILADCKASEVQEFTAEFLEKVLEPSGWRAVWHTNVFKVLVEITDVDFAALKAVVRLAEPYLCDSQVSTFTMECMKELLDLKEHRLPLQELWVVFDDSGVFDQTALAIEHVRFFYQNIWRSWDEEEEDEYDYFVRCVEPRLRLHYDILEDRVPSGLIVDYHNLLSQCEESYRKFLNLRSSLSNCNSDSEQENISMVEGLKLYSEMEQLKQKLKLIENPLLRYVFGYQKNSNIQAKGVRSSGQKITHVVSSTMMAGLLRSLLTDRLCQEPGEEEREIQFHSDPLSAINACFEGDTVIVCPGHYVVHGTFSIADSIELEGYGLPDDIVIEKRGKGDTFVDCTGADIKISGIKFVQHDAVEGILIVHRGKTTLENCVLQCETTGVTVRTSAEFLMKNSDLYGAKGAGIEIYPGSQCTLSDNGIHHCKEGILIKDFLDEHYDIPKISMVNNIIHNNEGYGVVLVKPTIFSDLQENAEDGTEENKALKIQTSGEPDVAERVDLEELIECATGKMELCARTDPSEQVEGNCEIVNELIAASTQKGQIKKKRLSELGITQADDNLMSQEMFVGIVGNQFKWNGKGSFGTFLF


Experiments:
[1] = target: MCM7 expressed from pHAGE-MCM7 in stable HL7702 cells (UniProt P33993); assay: affinity purification with mass spectrometry; anti-MCM7 antibody and protein A/G-agarose beads on lysate of stable HL7702 cells expressing MCM7 (pHAGE-MCM7); overnight at 4 °C; IgG control; gel digested, LC-MS/MS
[2] = target: T1, SHCBP1, endogenous (human (endogenous in HepG2 and HL7702)); assay: affinity purification with mass spectrometry; anti-SHCBP1 antibody on lysate of a hepatocyte cell line; same protocol as the anti-MCM7 IP-MS

| binding [1] | binding [2] | Binder |
| --- | --- | --- |
| binds |  | SHCBP1, endogenous (protein, UniProt Q8NEM2 1-672) MADGSLTGGGLEAAAMAPERMGWAVEQELASLEKGLFQDEDSCSDCSYRDKPGSSLQSFMPEGKTFFPEIFQTNQLLFYERFRAYQDYILADCKASEVQEFTAEFLEKVLEPSGWRAVWHTNVFKVLVEITDVDFAALKAVVRLAEPYLCDSQVSTFTMECMKELLDLKEHRLPLQELWVVFDDSGVFDQTALAIEHVRFFYQNIWRSWDEEEEDEYDYFVRCVEPRLRLHYDILEDRVPSGLIVDYHNLLSQCEESYRKFLNLRSSLSNCNSDSEQENISMVEGLKLYSEMEQLKQKLKLIENPLLRYVFGYQKNSNIQAKGVRSSGQKITHVVSSTMMAGLLRSLLTDRLCQEPGEEEREIQFHSDPLSAINACFEGDTVIVCPGHYVVHGTFSIADSIELEGYGLPDDIVIEKRGKGDTFVDCTGADIKISGIKFVQHDAVEGILIVHRGKTTLENCVLQCETTGVTVRTSAEFLMKNSDLYGAKGAGIEIYPGSQCTLSDNGIHHCKEGILIKDFLDEHYDIPKISMVNNIIHNNEGYGVVLVKPTIFSDLQENAEDGTEENKALKIQTSGEPDVAERVDLEELIECATGKMELCARTDPSEQVEGNCEIVNELIAASTQKGQIKKKRLSELGITQADDNLMSQEMFVGIVGNQFKWNGKGSFGTFLF |
|  | binds | RACGAP1, endogenous (protein, UniProt Q9H0H5 1-632) MDTMMLNVRNLFEQLVRRVEILSEGNEVQFIQLAKDFEDFRKKWQRTDHELGKYKDLLMKAETERSALDVKLKHARNQVDVEIKRRQRAEADCEKLERQIQLIREMLMCDTSGSIQLSEEQKSALAFLNRGQPSSSNAGNKRLSTIDESGSILSDISFDKTDESLDWDSSLVKTFKLKKREKRRSTSRQFVDGPPGPVKKTRSIGSAVDQGNESIVAKTTVTVPNDGGPIEAVSTIETVPYWTRSRRKTGTLQPWNSDSTLNSRQLEPRTETDSVGTPQSNGGMRLHDFVSKTVIKPESCVPCGKRIKFGKLSLKCRDCRVVSHPECRDRCPLPCIPTLIGTPVKIGEGMLADFVSQTSPMIPSIVVHCVNEIEQRGLTETGLYRISGCDRTVKELKEKFLRVKTVPLLSKVDDIHAICSLLKDFLRNLKEPLLTFRLNRAFMEAAEITDEDNSIAAMYQAVGELPQANRDTLAFLMIHLQRVAQSPHTKMDVANLAKVFGPTIVAHAVPNPDPVTMLQDIKRQPKVVERLLSLPLEYWSQFMMVEQENIDPLHVIENSNAFSTPQTPDIKVSLLGPVTTPEHQLLKTPSSSSLSQRVRSTLTKNTPRFGSKSKSATNLGRQGNFFASPMLK |
